These are yes or no findings as the source states them, for the method shown. In cells and extracts the contact can be indirect.
Assays:
[1] = target: Pumilio homolog 2 (PUM2) (human (endogenous in HeLa S3)) (UniProt Q8TB72); assay: co-IP; endogenous PUM1 or PUM2 captured from HeLa S3 cell extract (20 mg protein) with anti-PUM1 on protein G or anti-PUM2 on protein A sepharose beads; NT2 buffer with 30 mM EDTA, 1 mM DTT, RNase inhibitors; 6 hours at 4°C; eluted with SDS-EDTA; eluates immunoblotted with the alternate PUM …
[2] = target: Pumilio homolog 1 (PUM1) (human (endogenous in HeLa S3)) (UniProt Q14671); assay: as above

Protein sequences, listed by entry. Tags and fused reporters are not part of them.
UniProt Q8TB72: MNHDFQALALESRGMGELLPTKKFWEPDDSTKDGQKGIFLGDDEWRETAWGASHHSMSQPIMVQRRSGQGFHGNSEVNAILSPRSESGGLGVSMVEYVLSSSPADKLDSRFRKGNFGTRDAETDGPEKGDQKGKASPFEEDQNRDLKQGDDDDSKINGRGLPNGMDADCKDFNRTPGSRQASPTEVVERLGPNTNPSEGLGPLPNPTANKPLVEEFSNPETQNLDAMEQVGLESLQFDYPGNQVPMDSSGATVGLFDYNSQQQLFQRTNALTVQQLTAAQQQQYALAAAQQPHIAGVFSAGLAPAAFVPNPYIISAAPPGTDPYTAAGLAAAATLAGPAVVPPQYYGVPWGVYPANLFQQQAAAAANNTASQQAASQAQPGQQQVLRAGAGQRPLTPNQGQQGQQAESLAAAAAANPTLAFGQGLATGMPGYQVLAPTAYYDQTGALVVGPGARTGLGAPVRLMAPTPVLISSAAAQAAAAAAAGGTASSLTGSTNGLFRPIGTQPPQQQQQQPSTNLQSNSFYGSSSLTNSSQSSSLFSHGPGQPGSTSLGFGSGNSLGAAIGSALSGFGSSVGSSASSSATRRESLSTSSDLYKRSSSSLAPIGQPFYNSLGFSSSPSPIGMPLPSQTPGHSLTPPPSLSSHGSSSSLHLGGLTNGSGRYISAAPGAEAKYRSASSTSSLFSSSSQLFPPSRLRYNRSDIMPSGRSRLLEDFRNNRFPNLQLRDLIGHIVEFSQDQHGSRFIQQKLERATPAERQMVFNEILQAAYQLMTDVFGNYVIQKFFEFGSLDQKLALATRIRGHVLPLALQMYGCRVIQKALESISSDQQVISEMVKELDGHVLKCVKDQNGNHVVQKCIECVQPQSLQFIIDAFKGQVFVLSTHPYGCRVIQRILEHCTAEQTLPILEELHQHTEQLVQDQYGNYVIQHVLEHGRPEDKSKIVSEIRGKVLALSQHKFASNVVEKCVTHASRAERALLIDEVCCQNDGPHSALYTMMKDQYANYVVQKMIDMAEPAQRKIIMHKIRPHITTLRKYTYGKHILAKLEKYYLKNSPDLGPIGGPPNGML
UniProt Q14671: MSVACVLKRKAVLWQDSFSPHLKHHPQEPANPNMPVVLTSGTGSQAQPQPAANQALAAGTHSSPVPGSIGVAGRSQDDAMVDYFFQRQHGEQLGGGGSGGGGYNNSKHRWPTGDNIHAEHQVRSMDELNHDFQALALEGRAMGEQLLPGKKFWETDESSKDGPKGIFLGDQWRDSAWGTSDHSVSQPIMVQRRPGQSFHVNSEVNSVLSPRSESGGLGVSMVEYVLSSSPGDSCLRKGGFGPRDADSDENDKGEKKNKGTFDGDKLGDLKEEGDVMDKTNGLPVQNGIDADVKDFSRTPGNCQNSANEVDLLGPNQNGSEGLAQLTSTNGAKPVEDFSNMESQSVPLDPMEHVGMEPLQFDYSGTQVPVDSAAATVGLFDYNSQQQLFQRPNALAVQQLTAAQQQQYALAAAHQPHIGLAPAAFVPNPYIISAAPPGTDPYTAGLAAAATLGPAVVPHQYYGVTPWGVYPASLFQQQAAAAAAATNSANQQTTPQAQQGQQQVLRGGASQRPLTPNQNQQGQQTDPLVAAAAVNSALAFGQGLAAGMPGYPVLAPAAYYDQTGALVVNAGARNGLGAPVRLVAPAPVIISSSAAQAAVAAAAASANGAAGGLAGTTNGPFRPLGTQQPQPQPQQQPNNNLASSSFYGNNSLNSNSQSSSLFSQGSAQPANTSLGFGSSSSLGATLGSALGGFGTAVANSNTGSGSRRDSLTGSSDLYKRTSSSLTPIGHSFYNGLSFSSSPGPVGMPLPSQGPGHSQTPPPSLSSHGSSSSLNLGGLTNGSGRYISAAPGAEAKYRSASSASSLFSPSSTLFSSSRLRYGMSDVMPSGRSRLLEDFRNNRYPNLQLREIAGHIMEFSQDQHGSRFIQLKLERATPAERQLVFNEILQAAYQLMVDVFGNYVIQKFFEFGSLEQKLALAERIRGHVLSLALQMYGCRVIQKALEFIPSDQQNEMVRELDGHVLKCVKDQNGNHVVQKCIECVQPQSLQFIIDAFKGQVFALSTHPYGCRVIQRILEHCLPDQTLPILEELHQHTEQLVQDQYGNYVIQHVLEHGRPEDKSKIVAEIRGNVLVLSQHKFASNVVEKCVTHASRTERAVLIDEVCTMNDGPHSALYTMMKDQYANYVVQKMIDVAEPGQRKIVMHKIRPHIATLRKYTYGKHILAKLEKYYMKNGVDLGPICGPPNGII

binding [1]	binding [2]	Substance
no binding	–	Pumilio homolog 1 (PUM1) (from UniProt Q14671 1-1186)
–	no binding	Pumilio homolog 2 (PUM2) (from UniProt Q8TB72 1-1066)

Source: publication PMC2522278
